Here are results for 26 compounds from the supplement of paper PMC10735217.

In this assay the test system is HEK293A TEAD-LUC reporter. The experiment in a line: TEAD-luciferase reporter activity (YAP activation), robust Z score vs plate; higher = stronger YAP/TEAD activation. The following applies: 24 h. (Reporter assays use an easily measured gene product as a stand-in for the process of interest.)

Counter-ions that a name gives are not always drawn. The list shows a part of the results. This data set is noisy: repeats of one test often differ as much as different tests do.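 Human kidney-derived cells stably carry a construct in which eight TEAD-binding elements drive luciferase, measured by luminescence in a drug-repurposing library screen. A hit is any compound whose signal exceeds the plate mean by more than five robust Z scores.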

`O=C1C2CCCCC2C(=O)N1CCCCN1CCN(c2nsc3ccccc23)CC1` (stereo unspecified) [perospirone]: the TEAD-luciferase reporter activity is inactive: -0.718 (compound concentration: 200 nM), inactive: -0.434 (compound concentration: 2 uM) and inactive: 4.09 (compound concentration: 10 uM).
The matching figures for `c1ccc2c(c1)CCc1cccc3c1C2CN1CCCCC31` (stereo unspecified): inactive: 0.318, inactive: -1.65 and inactive: 0.177.
As for `c1ccc(N(CCN2CCCCC2)Cc2ccccn2)cc1`, the TEAD-luciferase reporter activity reads like this: (compound concentration: 200 nM) inactive: 4.72; (compound concentration: 2 uM) inactive: -1.21; (compound concentration: 10 uM) inactive: 0.366.
On to `Nc1c(Br)cc(Br)cc1CN[C@H]1CC[C@H](O)CC1` [Ambroxol hydrochloride], for which the TEAD-luciferase reporter activity (compound concentration: 2 uM) was inactive: 0.0421.
On to `Nc1c(Br)cc(Br)cc1CN[C@H]1CC[C@H](O)CC1` [Ambroxol HCl], for which the TEAD-luciferase reporter activity is, setting by setting: (compound concentration: 200 nM) inactive: -0.965; (compound concentration: 10 uM) inactive: 0.0971.
Take `O=C(CCBr)N1CC[N+]2(CC1)CC[N+]1(CCN(C(=O)CCBr)CC1)CC2` [Spirobromin]: the TEAD-luciferase reporter activity by setting is: (compound concentration: 200 nM) inactive: -1.98; (compound concentration: 2 uM) inactive: -0.986; (compound concentration: 10 uM) inactive: -0.628.
The matching figures for `CN1CCN(C2=Cc3cc(Cl)ccc3/C(=C\C#N)c3ccccc32)CC1`: inactive: -1.06, inactive: 0.736 and inactive: -1.27.
Turning to `O=C(/C=C/C=C/c1ccc2c(c1)OCO2)N1CCCCC1`, the TEAD-luciferase reporter activity (compound concentration: 200 nM) is inactive: -0.896 and the TEAD-luciferase reporter activity (compound concentration: 10 uM) was active: 6.18.
For the compound `COc1ccc(-c2nc(-c3cccn3CC(=O)O)sc2-c2ccc(OC)cc2)cc1`, the TEAD-luciferase reporter activity reads like this: (compound concentration: 200 nM) inactive: -2.28; (compound concentration: 2 uM) inactive: 0.153; (compound concentration: 10 uM) inactive: -0.0958.
With `COC(=O)Nc1ccc(S(=O)(=O)/N=c2\cc(C(=O)O)[nH]c3cc(Cl)cc(Cl)c23)cc1`, the TEAD-luciferase reporter activity by setting is: (compound concentration: 200 nM) inactive: -0.722; (compound concentration: 2 uM) inactive: -1.11; (compound concentration: 10 uM) inactive: -0.336.
Taken in the same sequence, the figures for `COc1ccc(CN[C@@H](C(=O)N[C@H]2c3ccccc3C[C@H]2O)[C@H](O)[C@H](Cc2ccccc2)NC(=O)[C@@H](NC(=O)OCc2ccccc2)C(C)(C)C)cc1` were inactive: -1.04, inactive: -0.487 and inactive: 1.52.
Taken in the same sequence, the figures for `COc1cc(N2CCN(C3CCN(c4ccc(F)c5c(OC)cc(C(F)(F)F)nc45)CC3)CC2)c2ncccc2c1` were inactive: -1.22, inactive: -0.425 and inactive: -2.37.
The matching figures for `CNC(=S)NCO`: inactive: 0.16, inactive: 1.21 and inactive: 1.63.
On to `CN(C)S(=O)(=O)CCNC(=O)N(CCCl)N=O`, for which the TEAD-luciferase reporter activity is inactive: -1.61 (compound concentration: 200 nM), inactive: -0.529 (compound concentration: 2 uM) and inactive: -0.675 (compound concentration: 10 uM).
The matching figures for `CCCNC1CCc2nc(N)sc2C1` (stereo unspecified) [pramipexole]: inactive: -1.73, inactive: -0.243 and inactive: -0.453.
The matching figures for `C[C@@H](NC(=O)[C@@H](CC(=O)N1CCC(N2CCCCC2)CC1)N1C(=O)[C@@H](N2C(=O)OC[C@@H]2c2ccccc2)[C@H]1/C=C/c1ccccc1)c1ccccc1`: inactive: 3.56, inactive: -0.368 and inactive: 1.84.
Regarding `COc1ccc(CN2CC(Oc3ccc(OC)cc3)C2)cc1`, the TEAD-luciferase reporter activity was inactive: 0.0824 (compound concentration: 200 nM) and inactive: -1.34 (compound concentration: 10 uM).
As for `CCOC(=O)Nc1ccc(SCC2COC(Cn3ccnc3)(c3ccc(OC)cc3)O2)cc1` (stereo unspecified), the TEAD-luciferase reporter activity runs as follows: (compound concentration: 200 nM) inactive: 4.47; (compound concentration: 2 uM) inactive: 1.04; (compound concentration: 10 uM) active: 6.86.
In the case of `CC(C)Nc1cccnc1N1CCN(C(=O)c2cc3cc(NS(C)(=O)=O)ccc3[nH]2)CC1` [delavirdine], the TEAD-luciferase reporter activity (compound concentration: 2 uM) is inactive: -0.288.
On to `CC(C)Nc1cccnc1N1CCN(C(=O)c2cc3cc(NS(C)(=O)=O)ccc3[nH]2)CC1` [Delavirdine mesylate], for which the TEAD-luciferase reporter activity runs as follows: (compound concentration: 200 nM) inactive: -2.45; (compound concentration: 10 uM) inactive: -0.931.
As to `CNC(=N)NCCC[C@H](NC(=O)[C@H](CC(C)C)NC(=O)NNC(=O)[C@H](Cc1ccccc1)NC(=O)[C@@H](NC(=O)[C@H](CC(N)=O)NC(=O)[C@@H]1C[C@@H](O)CN1C(=O)[C@@H](Cc1ccc(O)cc1)NC(C)=O)[C@@H](C)O)C(=O)N[C@@H](Cc1c[nH]c2ccccc12)C(N)=O`, the TEAD-luciferase reporter activity runs as follows: (compound concentration: 200 nM) inactive: -0.672; (compound concentration: 2 uM) inactive: -0.166; (compound concentration: 10 uM) inactive: 2.54.
With `CCC(C)(C)c1ccc(CC(C)CN2C[C@@H](C)O[C@@H](C)C2)cc1` (stereo partly specified), the TEAD-luciferase reporter activity is, setting by setting: (compound concentration: 200 nM) inactive: 1.38; (compound concentration: 10 uM) inactive: -1.51.
In the case of `CCC(C)(C)c1ccc(CC(C)CN2C[C@@H](C)O[C@@H](C)C2)cc1` (stereo partly specified) [amorolfine], the TEAD-luciferase reporter activity (compound concentration: 2 uM) was inactive: 0.0421.
For `COc1c(O)cc2oc3cc(O)c(CC=C(C)C)c(O)c3c(=O)c2c1CC=C(C)C`, the TEAD-luciferase reporter activity by setting is: (compound concentration: 200 nM) inactive: 0.678; (compound concentration: 2 uM) inactive: -0.0264; (compound concentration: 10 uM) inactive: -0.658.
Take `CC1(C)CC(c2cccc[n+]2[O-])c2cc(C#N)ccc2O1` (stereo unspecified): the TEAD-luciferase reporter activity by setting is: (compound concentration: 200 nM) inactive: 3.98; (compound concentration: 2 uM) inactive: -0.916; (compound concentration: 10 uM) inactive: -1.36.
For `N[C@H](C(=O)O)[C@@H]1C=C(Cl)NO1` [acivicin], the TEAD-luciferase reporter activity reads like this: (compound concentration: 200 nM) inactive: -0.234; (compound concentration: 10 uM) inactive: 0.377.
